PubChem BioAssay AID1259284 – Sanger Institute, 2017

Screen: 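Kinase knock-downs that cut colorectal cancer cell growth alone or with targeted drugs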 (primary screen)
Cell system: SW48 human colorectal cancer cells
Reagents: siRNA pool against human genes
Challenge: anchor drug BYL719 at 1 µM, cetuximab at 5 µg/ml or trametinib at 10 nM, or DMSO vehicle alone
Measured: 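Cell viability relative to non-targeting pool wells, replicate mean, with robust z-scores and drug synergy scores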
Scale: robust z-score, no drug: higher = more cells survive knock-down; viability, no drug: higher = more viable cells; synergy with BYL719 and synergy with trametinib and synergy with cetuximab: higher = stronger combined killing with drug
Rule for the call: 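a knock-down is essential if viability without drug gives a robust z-score under -3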
Meaning of the calls: active = essential without drug; inactive = no change without drug
Here is an unselected part of 794 reagents. Over the whole deposit, 16 (2%) were called active. 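Calls concern knock-down without drug only; drug synergy was judged apart, with scores above 0.15 taken as synergy.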 Entries without a mark were called inactive. No viability above 1 is reported: the scale is capped. Reagent sequences are not shown. The record does not give: the amount of reagent, the time to read-out.

gene symbol	robust z-score, no drug	viability, no drug (fraction of control)	synergy with BYL719	synergy with trametinib	synergy with cetuximab
EEF2K (eukaryotic elongation factor 2 kinase)	0.426	1	-0.181	-0.0837	-0.0872
EIF2AK4 (eukaryotic translation initiation factor 2 alpha kinase 4)	0.366	0.995	-0.278	-0.134	-0.109
ETNK2 (ethanolamine kinase 2)	0.426	1	0.0161	-0.00544	-0.099
AK3 (adenylate kinase 3)	0.426	1	-0.345	-0.108	-0.0934
SIK1 (salt inducible kinase 1)	0.426	1	-0.196	-0.107	0.0386
SRC (SRC proto-oncogene, non-receptor tyrosine kinase)	0.426	1	-0.101	-0.0492	-0.165
PRKAB2 (protein kinase AMP-activated non-catalytic subunit beta 2)	-1.9	0.801	-0.194	-0.0524	-0.317
PDK3 (pyruvate dehydrogenase kinase 3)	0.426	1	-0.25	-0.241	-0.0754
EPHA4 (EPH receptor A4)	0.426	1	-0.151	-0.099	-0.1
PRKACG (protein kinase cAMP-activated catalytic subunit gamma)	-1.8	0.809	-0.0165	0.0663	-0.0804
CSNK2A1 (casein kinase 2 alpha 1)	0.426	1	-0.261	-0.341	-0.165
DLG4 (discs large MAGUK scaffold protein 4)	0.426	1	-0.154	-0.113	-0.165
PRKAR1B (protein kinase cAMP-dependent type I regulatory subunit beta)	-1.83	0.807	-0.0576	-0.0793	-0.106
FASTK (Fas activated serine/threonine kinase)	0.00912	0.964	-0.0291	-0.0508	0.0372
NF1 (neurofibromin 1)	0.426	1	-0.172	-0.0321	0.0545
AKT1 (AKT serine/threonine kinase 1)	0.426	1	-0.081	-0.157	-0.165
PIK3C3 (phosphatidylinositol 3-kinase catalytic subunit type 3)	0.426	1	-0.164	0.0227	-0.159
PRKCSH (PRKCSH beta subunit of glucosidase II)	-1.52	0.833	-0.149	-0.193	-0.172
FER (FER tyrosine kinase)	0.426	1	-0.289	-0.136	-0.165
ALK (ALK receptor tyrosine kinase)	0.426	1	-0.189	-0.0324	-0.00915
JAK2 (Janus kinase 2)	0.426	1	-0.335	-0.237	-0.165
FN3K (fructosamine 3 kinase)	0.426	1	-0.158	0.112	0.0844
PRKCG (protein kinase C gamma)	0.426	1	-0.228	-0.165	-0.165
DIS3 (DIS3 exosome endoribonuclease and 3'-5' exoribonuclease)	0.426	1	-0.196	-0.159	-0.165

Next part; the last 7 above are carried over.
gene symbol	robust z-score, no drug	viability, no drug (fraction of control)	synergy with BYL719	synergy with trametinib	synergy with cetuximab
PRKCSH (PRKCSH beta subunit of glucosidase II)	-1.52	0.833	-0.149	-0.193	-0.172
FER (FER tyrosine kinase)	0.426	1	-0.289	-0.136	-0.165
ALK (ALK receptor tyrosine kinase)	0.426	1	-0.189	-0.0324	-0.00915
JAK2 (Janus kinase 2)	0.426	1	-0.335	-0.237	-0.165
FN3K (fructosamine 3 kinase)	0.426	1	-0.158	0.112	0.0844
PRKCG (protein kinase C gamma)	0.426	1	-0.228	-0.165	-0.165
DIS3 (DIS3 exosome endoribonuclease and 3'-5' exoribonuclease)	0.426	1	-0.196	-0.159	-0.165
ADCK5 (aarF domain containing kinase 5)	-0.349	0.933	-0.156	-0.0484	-0.22
MAGI3	0.426	1	-0.081	-0.104	0.0774
MAP4K2 (mitogen-activated protein kinase kinase kinase kinase 2)	0.426	1	-0.0915	0.0839	0.0697
NME6 (NME/NM23 nucleoside diphosphate kinase 6)	0.426	1	-0.114	0.133	0.159
CTNNB1 (catenin beta 1)	-0.518	0.919	-0.0879	-0.0333	-0.0346
IP6K2 (inositol hexakisphosphate kinase 2)	0.426	1	-0.0869	-0.00964	-0.15
NME5 (NME/NM23 family member 5)	0.426	1	-0.24	-0.217	-0.109
FXN (frataxin)	0.426	1	-0.345	-0.0503	-0.165
COASY (Coenzyme A synthase)	0.212	0.982	-0.0633	0.158	0.0145
RIPK3 (receptor interacting serine/threonine kinase 3)	0.426	1	-0.129	-0.243	-0.108
PRKCZ (protein kinase C zeta)	-1.71	0.817	-0.0569	-0.124	-0.175
MPP1 (MAGUK p55 scaffold protein 1)	0.426	1	-0.226	0.00949	-0.0838
MAST2 (microtubule associated serine/threonine kinase 2)	0.426	1	-0.0444	0.0233	-0.017
RPS6KL1 (ribosomal protein S6 kinase like 1)	0.426	1	-0.242	-0.145	-0.16
PASK (PAS domain containing serine/threonine kinase)	0.426	1	-0.224	0.00633	-0.165
MAPK13 (mitogen-activated protein kinase 13)	0.426	1	-0.129	-0.0254	-0.0721
CDK9 (cyclin dependent kinase 9)	0.426	1	-0.181	-0.226	-0.165
PAK1 (p21 (RAC1) activated kinase 1)	-2.38	0.759	-0.0381	0.0294	0.0315
IP6K3 (inositol hexakisphosphate kinase 3)	0.426	1	-0.0331	-0.0993	0.0198
CDKL5 (cyclin dependent kinase like 5)	0.426	1	-0.225	-0.0771	-0.0715
LMTK2 (lemur tail kinase 2)	-0.501	0.92	-0.176	0.0353	0.00141
LRRK1 (leucine rich repeat kinase 1)	0.426	1	-0.222	-0.119	-0.0996
CSNK2B (casein kinase 2 beta)	0.426	1	-0.169	-0.033	0.0159
HSPB8 (heat shock protein family B (small) member 8)	0.426	1	-0.275	0.287	-0.165
ITPKA (inositol-trisphosphate 3-kinase A)	0.426	1	-0.0664	-0.123	-0.0285
PDXK (pyridoxal kinase)	0.426	1	-0.288	-0.223	-0.165
CDKN1A (cyclin dependent kinase inhibitor 1A)	0.426	1	-0.138	-0.074	-0.0397
GRK6 (G protein-coupled receptor kinase 6)	-1.07	0.872	-0.0556	-0.039	-0.111
STK16 (serine/threonine kinase 16)	0.426	1	-0.264	-0.1	-0.104
PTPN11 (protein tyrosine phosphatase non-receptor type 11)	-0.31	0.937	-0.213	-0.0429	-0.218
PRKY (protein kinase Y-linked (pseudogene))	0.426	1	-0.3	-0.0515	-0.034
STRADA (STE20 related adaptor alpha)	0.426	1	-0.248	-0.136	-0.0628
FES (FES proto-oncogene, tyrosine kinase)	0.426	1	-0.334	-0.193	-0.165
MAP2K6 (mitogen-activated protein kinase kinase 6)	0.0546	0.968	-0.228	-0.0877	-0.108
BRD3 (bromodomain containing 3)	0.426	1	-0.162	-0.0588	-0.137
PI4K2A (phosphatidylinositol 4-kinase type 2 alpha)	0.426	1	-0.346	-0.311	-0.165
LIMK1 (LIM domain kinase 1)	0.426	1	-0.178	-0.193	-0.0813
NME1 (NME/NM23 nucleoside diphosphate kinase 1)	0.426	1	-0.345	-0.194	-0.159
CSNK1G3 (casein kinase 1 gamma 3)	0.426	1	-0.229	-0.136	-0.165
